Source: patent publication US8232584B2 (priority 2005, dated 2012)

Tested on: monoclonal antibodies for PSA (Ab1)
Assay type: binding

f-PSA: free prostate specific antigen, cancer marker protein, purchased from Calbiochem
concentration down to which label-free detection was achieved (buffer solution, signal to noise >3, listed as PSA): about 75 fg/ml | PSA concentration giving well-defined conductance changes in serum (desalted undiluted donkey serum, 59 mg/ml total protein): ≤ 0.9 pg/mL
